Taken from: PubChem BioAssay AID1224826 (NIAID, 2016)

Screen: 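Genes that change LPS-induced Tnf promoter activity in mouse macrophages when knocked down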 (primary screen)
Cells: RAW264.7 G9 macrophages from mouse bearing reporters for p65 (GFP) and the Tnf promoter (mCherry)
Reagents: siRNA pool against mouse genes, 100 nM
Duration: 16 h of LPS stimulation, after 2 days of siRNA transfection
Challenge: bacterial lipopolysaccharide (Salmonella minnesota R595), 10 ng/ml
Read-out: 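Imaged Tnf reporter mCherry in nuclei, minus background, normalised per plate to the median and expressed as robust z-scores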
Direction: Tnf reporter robust z-score: higher = stronger Tnf promoter reporter signal after LPS
Call rule: 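a well counts as active at a score of -1.3 or below (Tlr4 knock-down control median) or above 3 (raised signal); controls and wells holding fewer than 50 cells are excluded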
Meaning of the calls: active = Tnf reporter clearly lowered or raised; inactive = no clear change in Tnf reporter
This is an unselected part of about 17,000 reagents tested. Of all reagents, about 1,110 (6.6%) were called active. 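Active means lowered or raised reporter signal; replicate intensities are raw and not normalised per plate.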 A number with no mark means an inactive call. Further read-outs or replicates are left out here.

gene symbol | Tnf reporter robust z-score | fewer than 50 cells in well
Tmem70 | -0.04 | enough cells in well
Eif4b | 0.28 | enough cells in well
Chchd6 | 0.79 | enough cells in well
Nr3c2 | -0.2 | enough cells in well
Dexi | 0.67 | enough cells in well
Hoxd4 | 0.49 | enough cells in well
Sestd1 | 0.37 | enough cells in well
Serpina5 | 0.05 | enough cells in well
Esco2 | – | fewer than 50 cells per well; well left out of calls
Hs2st1 | -0.02 | enough cells in well
1810018F18Rik | -0.27 | enough cells in well
Ttc7 | – | fewer than 50 cells per well; well left out of calls
Vmn1r171 | -1.19 | enough cells in well
Tsc1 | 1.21 | enough cells in well
Dhx16 | -0.4 | enough cells in well
Mast4 | 0.06 | enough cells in well
Clcn4 | -0.1 | enough cells in well
a | -0.3 | enough cells in well
Psmg2 | – | fewer than 50 cells per well; well left out of calls
Or5ar1 | -0.64 | enough cells in well
Pnliprp2 | -0.74 | enough cells in well
Adprm | – | fewer than 50 cells per well; well left out of calls
Hoxa4 | -1.17 | enough cells in well
Rhbdd3 | – | fewer than 50 cells per well; well left out of calls
Eif4e3 | – | fewer than 50 cells per well; well left out of calls
Or4c123 | 0.5 | enough cells in well
Pacsin1 | 0.73 | enough cells in well
F8 | -0.01 | enough cells in well
Fcgr2b | -0.8 | enough cells in well
Tprn | 1.54 | enough cells in well
Slc35a3 | – | fewer than 50 cells per well; well left out of calls
Mgst3 | -1.06 | enough cells in well
Hspe1 | -1.01 | enough cells in well
Slc25a22 | 0.58 | enough cells in well
Pmm1 | – | fewer than 50 cells per well; well left out of calls
Miso1 | -0.68 | enough cells in well
Ccdc137 | – | fewer than 50 cells per well; well left out of calls
Sorcs3 | -0.55 | enough cells in well
Myb | 0.52 | enough cells in well
Glt28d2 | – | fewer than 50 cells per well; well left out of calls
Tppp3 | – | fewer than 50 cells per well; well left out of calls
Insc | – | fewer than 50 cells per well; well left out of calls
Eif2s3x | -1.67 (active) | enough cells in well
Tlr13 | 0.15 | enough cells in well
Pramel6 | 2.12 | enough cells in well
Insm2 | -0.04 | enough cells in well
Itm2a | 0.92 | enough cells in well
Hspb3 | -0.5 | enough cells in well
Cnst | -0.42 | enough cells in well
Kcnrg | 2.63 | enough cells in well
Inmt | 0.03 | enough cells in well
Btf3 | -0.46 | enough cells in well
Tha1 | 0.5 | enough cells in well
Itgal | -0.59 | enough cells in well
Trpc3 | 0.97 | enough cells in well
Rps27l | 1.33 | enough cells in well
Rbm34 | 1.66 | enough cells in well
Cdh11 | 0.26 | enough cells in well

Reprinted from the listing, 8 entries:
gene symbol | Tnf reporter robust z-score | fewer than 50 cells in well
Pnliprp2 | -0.74 | enough cells in well
Adprm | – | fewer than 50 cells per well; well left out of calls
Hoxa4 | -1.17 | enough cells in well
Rhbdd3 | – | fewer than 50 cells per well; well left out of calls
Eif4e3 | – | fewer than 50 cells per well; well left out of calls
Or4c123 | 0.5 | enough cells in well
Pacsin1 | 0.73 | enough cells in well
F8 | -0.01 | enough cells in well
